This note sets out measurements from PubChem BioAssay AID1347423 (Functional Genomics Laboratory (NCATS/FGL), 2020).

The campaign covered roughly 52,000 sequences. About 210 (0.4%) were called active.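 The calls were made as follows: active = gene whose silencing raises cell survival under the drug, median off-target-corrected z-score across its silencing RNAs 2 or more; inactive = the rest.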 Some of the results follow.

The assay in a line: Resistance to Poly (ADP-Ribose) Polymerase inhibitor: Gene Identification via Genome-wide siRNA Screen. The note with it: mouse BRCA2 R2336H ES cells, olaparib, CellTiter-Glo viability; active compounds read high. A digest of the protocol: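 Genome-wide siRNA screen (3 siRNAs/gene, 20 nM) in mouse ES cells carrying hypomorphic BRCA2 R2336H; olaparib 500 nM added 48 h post-transfection, CellTiter-Glo viability 72 h later. Normalized to plate-median negative control; MAD z-scores, gene median, seed-adjusted.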
On the technique in general: ATP-based viability assays read luminescence as a measure of living cells.
Consider “GGCUCUACCACAAGAAGGUTT against 2310020H20Rik”, for which the z-score was inactive: -1.88. With GCUGCUAGCAAAAAGAACUTT against Yaf2 the figure was inactive: 0.285; with GGAUCAGAACACUUUGGCATT against Leng5, inactive: -0.908; with GGUGAGGAUUUAUUUGAAGTT against Fkbp5, inactive: 0.0901.

For the sequence “GGGCUGGGUCUUCAUAAUUTT against 6330549D23Rik”, the z-score was inactive: -0.191.

On to “GGAACCUAACCUAAGUAGUTT against B530045E10Rik”, for which the z-score was inactive: 0.516. On to “GGAUGACUACAAAUGCAAATT against E230015B07Rik”, for which the z-score is inactive: 0.67. For the sequence “GGGACUUUAGAUGAAAAAATT against 5430404L10Rik”, the z-score was inactive: -0.058.

Regarding “GGAGCUGAUAGGACUGAUGTT against 1110031B06Rik”, the z-score is inactive: 0.0234. To GGCCGUACCUUUAACUGGATT against Tex101 belongs inactive: -1.28; to CCUGUGUAUUCCUAAAUUGTT against Wdr41, inactive: 0.988. With “CCGGAGGUUUAGAAGAGGATT against 4930534B04Rik” the figure was inactive: 0.244; with GGAAGUGAAGAGAUCCUUATT against Olfr148, inactive: 1.22; with “GCGUGAGUCCCUAUAUGAATT against 2300008B03Rik”, inactive: 1.28. Turning to GGAAAAUCACUUCAUUCACTT against Ltk, the z-score is inactive: 0.264. “GGUUUAAGCUUUUUGUGGATT against D130079A08Rik”: the z-score was inactive: 0.808. For “GGAAGGAUUCUGGAAACAGTT against 2210409E12Rik”, the z-score is inactive: -0.14. Consider GCUCACAAGGUACCUAUUATT against Frmd3, for which the z-score is inactive: -1.6. With GGACUUAAGGCCCUUUUUGTT against Elovl3 the figure was inactive: -0.378; with “GGGAAGAGGAUAGGAUUCGTT against 2310079N02Rik”, inactive: 2.88; with “GGACUUCACUUUUCUAUGATT against 9630015D15Rik”, inactive: 0.243. As to GGAGAUGGAUGAUAUGGAGTT against Ifi30, the z-score was inactive: 1.29. As for CGUUGUUUAUUCCAAAGAGTT against Runx1, the z-score was inactive: 0.209. As for GCCUUUUGACGCAAAAACATT against Myh8, the z-score was inactive: 1.39. As for GGAUCAACAGUCAAUUGUGTT against Tax1bp1, the z-score was inactive: -1.81. In the case of GGAAAGAAGAAACAUUCCUTT against Socs5, the z-score was inactive: 0.2. With “GAAUAUUGCUCAGUGCAAGTT against 1110021N19Rik” the figure was inactive: 0.456; with “GGGAGUUAACAAAAACAUATT against 6030405P05Rik”, inactive: 1.25. On to GGGUUUUUGAUGAUGAUUCTT against Htatsf1, for which the z-score is inactive: -2.02. For the sequence CGGGAUCUUCACUCUCUGATT against Timd4, the z-score is inactive: -1.62. For the sequence GGAUAAAAGCAUUUGAGUCTT against Acp1, the z-score was inactive: 0.454. As to GGAAGGUAAAUGUCUGCUCTT against Selk, the z-score is inactive: 0.809.

For GGGAAAGGAUAAAGAUUUUTT against Hmgcs1, the z-score was inactive: -0.388.

On to GGAGAAAGCCUUCCAAUUUTT against Kel, for which the z-score is inactive: 0.517. Regarding GCUCCCUACUUUACAUAAATT against Vmd2l3, the z-score is inactive: -0.737. GCUGUUGGUCUGAUAGCUUTT against Hadhb: the z-score was inactive: 0.258. In the case of CCAGCCAAGACUAAGAAACTT against Mbd1, the z-score was inactive: -0.579.

In the case of GGGUAUUGAGUUCAAAAUUTT against Dld, the z-score is inactive: -1.38. Regarding AGAAUCUUUAAAGGAAGUCTT against Olfr325, the z-score is inactive: -0.796.

CGAUAGACCAAAUUUUAUGTT against Trim37: the z-score is inactive: 1.05. With “GGACAAGAAACAGCUGUCATT against D5Ertd593e” the figure was inactive: -1.88; with “GGAGAAAUACUCAGAAAUGTT against 4933405K18Rik”, inactive: 0.236. Turning to GGAAUAUUAUCUGAUCUGUTT against Abca4, the z-score is inactive: -0.169. For the sequence GGAGACAAUAUGGGACAUGTT against Ddb2, the z-score is inactive: -0.235. Consider “GCUGGUUGUAGUAAAACAGTT against 2810474O19Rik”, for which the z-score is inactive: -0.745. “GCUGCUCAAGAUCAUUUGATT against 1700010C24Rik”: the z-score is inactive: -0.205. Regarding GCGAGUUCGAUUGCUUCUCTT against Cited4, the z-score was inactive: -0.534. On to GGAAGGAACUCAAGAAGACTT against Ifrd1, for which the z-score was inactive: 0.283. In the case of “GGUGAUUCCAUUACCUAGUTT against E430028B21Rik”, the z-score is inactive: 0.655.

For GGACUUAGUGUGGAAAAGATT against Ddah2, the z-score was inactive: -0.285.

As for “GGAAAGCUGGUGAUGCUCGTT against A430107D22Rik”, the z-score was inactive: 0.391. Take GGGCCUUCACAAUGUCCUUTT against Brca1: the z-score is inactive: -1.64. For CGUGAUGAAUGAGAAUAACTT against Maea, the z-score was inactive: 0.329. As for GCUGUAUUAUGUAGCUUCUTT against Ddx27, the z-score is inactive: 0.203.

GGUCUCUUUUUGUUUCCUUTT against Ctf1: the z-score is inactive: 0.628. GCUGCCAACGAAGAUGAGCTT against Casc1: the z-score was inactive: 0.464. With GGUUACCUAGAAGUGGACUTT against Igsf6, the z-score is inactive: -0.891. To GGUGACUCCAAGAAUGUGGTT against Wfdc1 belongs inactive: 1.02. As to “GGAUGCCUUUGAUGAUGUGTT against 5430425K04Rik”, the z-score is inactive: -2.18. Turning to “GGAGGAGAAAAAUUGUAUUTT against A530053G22Rik”, the z-score was inactive: -0.318.

Consider GGAUAAGACUUUAGCUUUUTT against Fbxo45, for which the z-score is inactive: -0.275. As to ACAAAGUCUGUUCAAGAUCTT against Oc90, the z-score was inactive: -1.31.

For GGAGCAGUUACAGGAAAUCTT against Cdr2, the z-score is inactive: -2.47. To CGGGUUCCCAGGAAUUAAGTT against Col4a6 belongs inactive: -0.397; to GGGAAGUUCAUUUGUUAAATT against Gosr1, inactive: 1.25; to CCUACAGGGAAUACGUGUATT against Ttc17, inactive: 0.556. Turning to GGGAAAAUAACAAAAAGAGTT against Hoxc6, the z-score was inactive: -0.224. With GAUGAUGAACGACUGGUUCTT against Olfr285 the figure was inactive: -0.333.

For GAAUGAGUUCUGCCCAGUCTT against Lhb, the z-score is inactive: 0.195. With “GGACAUUGAUGUCAUAGAATT against 2310067E08Rik”, the z-score is inactive: 0.548. As to GGAGAAAUAUGAUGUUCUUTT against Mppe1, the z-score is inactive: 0.684. GGACGAAAUAACAGGCUAATT against Ocil: the z-score was inactive: -1.94. To GGUGGCUCAGAAAUCCUAUTT against Rbpsuhl belongs inactive: 1.91. Take GCUCAGUGAUAAUUAAACGTT against Nudt10: the z-score is inactive: 0.478. In the case of GGGCAUCAUGCCUCAUGAATT against AI839550, the z-score is inactive: 2.08. On to CCUGGCAGUAAAAGAUUGCTT against Ndst3, for which the z-score was inactive: 0.0386. In the case of “CGUGUUGGAGUACAAUGAGTT against 1190002L16Rik”, the z-score is inactive: -1.5. With GGACAGCUUGUAAAUUGCCTT against bM64F17.1 the figure was inactive: -0.124; with GCACUAAAUCCUUUGAUAUTT against Olfr307, inactive: 0.472. On to GGAGUUCAAGACGGAGAAGTT against Gpr27, for which the z-score was inactive: 2.11. Regarding CGGAAUCAAACUUUUCGGGTT against Rbm7, the z-score was inactive: 0.161. Turning to GGCCAGGAUUAUAAGUUUUTT against AI504432, the z-score was inactive: 0.163. As for GCAAGUUCAUUAAACCAUATT against Rec8L1, the z-score was inactive: 1.09.

On to “CGGAUUGACAAGUUUGCUATT against 0610039G24Rik”, for which the z-score is inactive: -0.071.

For CCAUCUUGACACCCAAACUTT against Olfr170, the z-score is inactive: -0.137.

Consider CCGAGUUUGGGAAUAACUUTT against Cacna1a, for which the z-score is inactive: -1.67. For CCUACAUCACACCUUGAUATT against Olfr1309, the z-score was inactive: -0.495. Take GGCAGGUGAACAUCACAGUTT against AW742319: the z-score was inactive: -0.0276. With GGAACAGAGUGUCCACAAUTT against Apof, the z-score was inactive: 0.919. With GCUUUGUAGGAGUUUUUAATT against Rhoq the figure was inactive: 0.168; with GGUGCUACGGGACAUUGAGTT against Suv420h2, inactive: -1.79; with GGGCAGUGAAAUCCUGUCUTT against Trim16, inactive: -1.35.

As for GGUUUACAAAAAUUCUCAGTT against Hcn1, the z-score was inactive: 0.856. With UUAAGGAAAUGUUCUGUUCTT against Olfr426, the z-score was inactive: -0.546.

As for GCCAUUGUACAGCUACCAUTT against Figla, the z-score was inactive: -0.242. As for GGAAAGAAUAGCAGCGUGGTT against Echs1, the z-score was inactive: 0.533. To GGAGAUGGGUGUCUUGGAGTT against LOC208943 belongs inactive: -1.29. Regarding CCUUAAGUUAGCUUUAGUUTT against Pop4, the z-score was inactive: 0.0497.

For CCAACGUAAGAAAUUCAGATT against Smoc1, the z-score is inactive: 0.0872. For GGAAAGUCGUCGUAACUAUTT against Dnajc4, the z-score is inactive: 0.798. With GGAGGACAUGGACACAGUCTT against Slc39a7 the figure was inactive: -2.14. As to “CCAGUUACGUUAAAAGCUUTT against D1Bwg0491e”, the z-score was inactive: 0.00475.

Turning to GCUGGGUUUACCUUCCUGATT against Olfr601, the z-score was inactive: -2.19.
